Measured values taken from the supplement of paper PMC12823440, “Inhibitors supercharge kinase turnover through native proteolytic circuits” (Nature, 2025).
Where a name gives a salt, the structure may show the parent alone. This is one part of the list. Hit calls seldom repeat between salt and free forms of one compound.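 Kinases were expressed as nanoluciferase fusions in K562 cells and luminescence was read every 4 h between 2 and 18 h as percent of control, DMSO set to 100% and a positive control to 0%. A time point counts as decreased when the signal drops significantly (2 sigma). The hit call is the authors' own, does not follow from the count of time points alone, and its rule is not shown.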

Chains of the proteins cited; added tags and fusions are not shown. Lines headed by an entry give the natural chain unless they say otherwise; changes in a name come on top.
UniProt Q15208: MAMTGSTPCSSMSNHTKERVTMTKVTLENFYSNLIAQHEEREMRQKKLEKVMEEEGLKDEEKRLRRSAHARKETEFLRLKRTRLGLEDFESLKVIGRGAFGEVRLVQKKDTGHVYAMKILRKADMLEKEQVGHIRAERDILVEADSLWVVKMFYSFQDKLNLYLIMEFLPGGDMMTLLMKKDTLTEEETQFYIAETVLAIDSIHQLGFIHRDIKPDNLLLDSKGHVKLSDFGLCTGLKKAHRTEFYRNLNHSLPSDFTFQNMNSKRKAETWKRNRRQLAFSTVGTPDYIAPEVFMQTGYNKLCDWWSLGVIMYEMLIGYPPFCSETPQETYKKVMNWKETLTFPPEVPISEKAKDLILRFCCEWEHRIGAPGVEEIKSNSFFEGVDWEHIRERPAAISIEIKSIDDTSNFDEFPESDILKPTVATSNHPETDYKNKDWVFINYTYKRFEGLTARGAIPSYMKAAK
UniProt P29597: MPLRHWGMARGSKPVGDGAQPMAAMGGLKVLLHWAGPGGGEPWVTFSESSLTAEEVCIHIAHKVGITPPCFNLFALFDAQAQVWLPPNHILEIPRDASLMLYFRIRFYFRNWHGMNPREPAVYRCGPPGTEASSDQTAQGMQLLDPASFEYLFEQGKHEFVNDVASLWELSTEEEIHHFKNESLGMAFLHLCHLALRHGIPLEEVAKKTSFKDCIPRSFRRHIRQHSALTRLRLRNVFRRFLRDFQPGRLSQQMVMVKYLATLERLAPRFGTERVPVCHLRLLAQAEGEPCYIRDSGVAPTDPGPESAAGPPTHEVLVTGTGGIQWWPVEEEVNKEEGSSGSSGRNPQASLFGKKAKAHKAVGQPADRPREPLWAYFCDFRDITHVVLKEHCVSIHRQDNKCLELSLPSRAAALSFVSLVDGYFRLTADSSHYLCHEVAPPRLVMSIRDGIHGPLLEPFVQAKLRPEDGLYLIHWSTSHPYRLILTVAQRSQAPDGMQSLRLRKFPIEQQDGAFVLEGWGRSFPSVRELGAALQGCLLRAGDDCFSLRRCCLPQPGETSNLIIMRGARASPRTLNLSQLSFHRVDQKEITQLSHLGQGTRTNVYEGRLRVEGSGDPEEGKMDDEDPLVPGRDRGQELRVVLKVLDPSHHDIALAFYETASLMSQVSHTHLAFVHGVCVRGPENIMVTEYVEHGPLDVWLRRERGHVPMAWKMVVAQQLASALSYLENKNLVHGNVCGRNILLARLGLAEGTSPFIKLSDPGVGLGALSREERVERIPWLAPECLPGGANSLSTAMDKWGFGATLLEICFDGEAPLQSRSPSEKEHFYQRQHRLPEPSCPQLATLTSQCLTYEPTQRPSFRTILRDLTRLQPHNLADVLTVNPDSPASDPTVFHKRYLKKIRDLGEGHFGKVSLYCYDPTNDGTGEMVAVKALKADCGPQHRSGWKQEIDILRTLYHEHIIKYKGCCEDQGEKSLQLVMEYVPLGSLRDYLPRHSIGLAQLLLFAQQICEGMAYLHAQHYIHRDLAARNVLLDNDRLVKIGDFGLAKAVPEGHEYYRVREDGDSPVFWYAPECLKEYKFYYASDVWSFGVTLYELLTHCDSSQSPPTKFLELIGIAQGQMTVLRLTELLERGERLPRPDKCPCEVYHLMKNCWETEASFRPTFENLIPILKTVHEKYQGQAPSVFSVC
UniProt Q6PHR2: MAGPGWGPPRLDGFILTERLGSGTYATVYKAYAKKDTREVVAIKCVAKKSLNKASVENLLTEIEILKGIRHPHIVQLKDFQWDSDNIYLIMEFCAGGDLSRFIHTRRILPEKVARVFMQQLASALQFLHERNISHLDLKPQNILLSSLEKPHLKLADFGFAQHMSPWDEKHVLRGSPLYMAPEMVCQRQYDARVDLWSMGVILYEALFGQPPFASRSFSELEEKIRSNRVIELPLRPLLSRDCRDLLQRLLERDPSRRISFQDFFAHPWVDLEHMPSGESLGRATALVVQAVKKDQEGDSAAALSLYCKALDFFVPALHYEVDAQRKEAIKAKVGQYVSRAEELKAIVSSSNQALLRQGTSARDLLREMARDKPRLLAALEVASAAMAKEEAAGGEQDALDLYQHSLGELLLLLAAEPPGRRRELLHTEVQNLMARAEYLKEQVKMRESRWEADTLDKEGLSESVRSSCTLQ
UniProt P43403: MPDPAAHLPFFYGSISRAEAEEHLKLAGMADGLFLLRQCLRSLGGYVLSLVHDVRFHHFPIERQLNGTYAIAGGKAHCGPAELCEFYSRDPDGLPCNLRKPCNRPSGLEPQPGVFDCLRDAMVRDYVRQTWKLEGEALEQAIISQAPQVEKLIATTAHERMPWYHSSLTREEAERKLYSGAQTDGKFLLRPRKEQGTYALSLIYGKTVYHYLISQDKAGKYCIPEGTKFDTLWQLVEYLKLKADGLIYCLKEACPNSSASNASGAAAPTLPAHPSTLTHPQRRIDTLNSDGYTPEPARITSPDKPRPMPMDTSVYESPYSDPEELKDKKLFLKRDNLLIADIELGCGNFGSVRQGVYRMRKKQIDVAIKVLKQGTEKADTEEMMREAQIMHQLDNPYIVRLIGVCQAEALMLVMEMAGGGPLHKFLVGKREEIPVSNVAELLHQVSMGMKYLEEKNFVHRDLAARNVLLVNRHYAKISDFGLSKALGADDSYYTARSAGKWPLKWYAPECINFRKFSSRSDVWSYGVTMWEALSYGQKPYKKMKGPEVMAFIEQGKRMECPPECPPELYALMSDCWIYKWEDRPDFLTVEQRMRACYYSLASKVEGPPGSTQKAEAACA
UniProt Q9UM73: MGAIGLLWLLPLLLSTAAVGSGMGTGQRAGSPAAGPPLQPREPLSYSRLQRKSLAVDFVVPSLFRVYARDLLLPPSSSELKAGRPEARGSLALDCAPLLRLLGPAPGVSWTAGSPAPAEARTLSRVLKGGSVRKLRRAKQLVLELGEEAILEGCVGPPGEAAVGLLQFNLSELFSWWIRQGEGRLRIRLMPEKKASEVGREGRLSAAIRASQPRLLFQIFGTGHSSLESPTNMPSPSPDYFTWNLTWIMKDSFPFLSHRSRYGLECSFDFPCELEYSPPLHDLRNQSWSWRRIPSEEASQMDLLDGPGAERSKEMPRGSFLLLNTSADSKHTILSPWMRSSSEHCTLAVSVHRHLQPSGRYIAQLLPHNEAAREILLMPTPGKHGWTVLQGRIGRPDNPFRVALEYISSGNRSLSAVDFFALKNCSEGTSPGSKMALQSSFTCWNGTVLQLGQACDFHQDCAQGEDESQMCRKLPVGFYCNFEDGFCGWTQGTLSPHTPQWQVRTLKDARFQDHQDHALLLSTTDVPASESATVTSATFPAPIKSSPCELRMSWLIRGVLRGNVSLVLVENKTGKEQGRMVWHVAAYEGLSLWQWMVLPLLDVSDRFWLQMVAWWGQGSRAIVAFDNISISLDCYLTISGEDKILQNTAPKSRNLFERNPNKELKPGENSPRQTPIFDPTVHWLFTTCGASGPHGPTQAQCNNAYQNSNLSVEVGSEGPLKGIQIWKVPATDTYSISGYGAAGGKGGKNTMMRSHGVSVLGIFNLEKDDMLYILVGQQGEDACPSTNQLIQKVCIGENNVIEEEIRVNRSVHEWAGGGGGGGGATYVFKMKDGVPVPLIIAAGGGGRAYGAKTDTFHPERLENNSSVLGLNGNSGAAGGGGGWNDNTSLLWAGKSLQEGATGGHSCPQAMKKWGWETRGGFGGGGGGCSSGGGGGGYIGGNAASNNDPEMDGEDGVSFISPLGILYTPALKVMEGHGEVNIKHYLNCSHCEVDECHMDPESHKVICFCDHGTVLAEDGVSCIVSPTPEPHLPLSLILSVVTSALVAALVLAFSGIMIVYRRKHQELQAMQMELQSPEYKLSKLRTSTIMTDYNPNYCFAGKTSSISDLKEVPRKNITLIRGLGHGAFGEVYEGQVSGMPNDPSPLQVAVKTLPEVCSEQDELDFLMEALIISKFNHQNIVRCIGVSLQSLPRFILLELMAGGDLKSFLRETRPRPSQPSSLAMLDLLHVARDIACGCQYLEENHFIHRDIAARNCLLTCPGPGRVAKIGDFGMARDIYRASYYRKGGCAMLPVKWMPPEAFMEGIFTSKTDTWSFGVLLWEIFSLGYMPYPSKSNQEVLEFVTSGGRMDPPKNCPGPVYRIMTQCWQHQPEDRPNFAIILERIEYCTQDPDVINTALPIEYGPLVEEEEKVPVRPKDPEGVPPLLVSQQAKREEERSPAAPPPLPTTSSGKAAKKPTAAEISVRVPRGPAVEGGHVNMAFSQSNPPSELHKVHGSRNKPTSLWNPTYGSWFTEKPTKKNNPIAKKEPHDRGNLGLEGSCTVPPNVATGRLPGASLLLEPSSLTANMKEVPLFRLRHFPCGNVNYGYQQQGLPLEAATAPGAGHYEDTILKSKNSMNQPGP
UniProt P10398: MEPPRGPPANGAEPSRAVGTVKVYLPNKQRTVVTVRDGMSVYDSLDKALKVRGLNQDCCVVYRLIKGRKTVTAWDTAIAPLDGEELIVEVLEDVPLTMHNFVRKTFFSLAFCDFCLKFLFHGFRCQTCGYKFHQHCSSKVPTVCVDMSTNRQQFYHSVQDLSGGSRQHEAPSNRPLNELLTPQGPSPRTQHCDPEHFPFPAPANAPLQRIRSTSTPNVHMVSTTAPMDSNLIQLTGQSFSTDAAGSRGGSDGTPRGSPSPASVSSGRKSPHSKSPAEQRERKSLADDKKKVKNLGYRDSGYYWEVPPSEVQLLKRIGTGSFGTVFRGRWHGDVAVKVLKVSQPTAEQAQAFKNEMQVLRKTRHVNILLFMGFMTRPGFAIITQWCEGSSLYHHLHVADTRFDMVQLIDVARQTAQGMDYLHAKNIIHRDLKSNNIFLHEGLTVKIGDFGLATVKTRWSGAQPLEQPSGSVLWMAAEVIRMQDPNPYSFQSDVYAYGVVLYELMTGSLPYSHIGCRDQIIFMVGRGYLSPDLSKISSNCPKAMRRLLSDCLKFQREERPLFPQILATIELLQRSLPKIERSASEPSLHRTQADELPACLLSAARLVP
UniProt O14965: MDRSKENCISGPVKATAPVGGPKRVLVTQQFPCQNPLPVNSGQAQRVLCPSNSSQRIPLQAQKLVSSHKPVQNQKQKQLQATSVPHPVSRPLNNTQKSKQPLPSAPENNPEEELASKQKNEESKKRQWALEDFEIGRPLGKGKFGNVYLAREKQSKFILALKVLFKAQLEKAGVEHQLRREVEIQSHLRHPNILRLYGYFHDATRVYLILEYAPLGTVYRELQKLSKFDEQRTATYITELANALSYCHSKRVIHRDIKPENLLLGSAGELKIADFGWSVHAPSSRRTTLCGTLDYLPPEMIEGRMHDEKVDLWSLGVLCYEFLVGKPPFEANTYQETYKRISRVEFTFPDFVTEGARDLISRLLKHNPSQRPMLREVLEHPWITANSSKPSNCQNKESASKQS
UniProt Q96GD4, whole entry: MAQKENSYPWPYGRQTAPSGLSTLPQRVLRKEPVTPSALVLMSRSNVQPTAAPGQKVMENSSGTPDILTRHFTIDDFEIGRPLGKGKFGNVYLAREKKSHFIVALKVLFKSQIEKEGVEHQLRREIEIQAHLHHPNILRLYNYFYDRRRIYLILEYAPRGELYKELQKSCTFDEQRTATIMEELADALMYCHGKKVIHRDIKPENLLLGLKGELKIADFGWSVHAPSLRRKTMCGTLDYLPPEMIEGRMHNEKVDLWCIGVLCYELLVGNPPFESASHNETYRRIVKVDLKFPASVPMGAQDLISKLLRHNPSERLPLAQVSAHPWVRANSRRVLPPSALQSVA
UniProt P15056, whole entry, looked up: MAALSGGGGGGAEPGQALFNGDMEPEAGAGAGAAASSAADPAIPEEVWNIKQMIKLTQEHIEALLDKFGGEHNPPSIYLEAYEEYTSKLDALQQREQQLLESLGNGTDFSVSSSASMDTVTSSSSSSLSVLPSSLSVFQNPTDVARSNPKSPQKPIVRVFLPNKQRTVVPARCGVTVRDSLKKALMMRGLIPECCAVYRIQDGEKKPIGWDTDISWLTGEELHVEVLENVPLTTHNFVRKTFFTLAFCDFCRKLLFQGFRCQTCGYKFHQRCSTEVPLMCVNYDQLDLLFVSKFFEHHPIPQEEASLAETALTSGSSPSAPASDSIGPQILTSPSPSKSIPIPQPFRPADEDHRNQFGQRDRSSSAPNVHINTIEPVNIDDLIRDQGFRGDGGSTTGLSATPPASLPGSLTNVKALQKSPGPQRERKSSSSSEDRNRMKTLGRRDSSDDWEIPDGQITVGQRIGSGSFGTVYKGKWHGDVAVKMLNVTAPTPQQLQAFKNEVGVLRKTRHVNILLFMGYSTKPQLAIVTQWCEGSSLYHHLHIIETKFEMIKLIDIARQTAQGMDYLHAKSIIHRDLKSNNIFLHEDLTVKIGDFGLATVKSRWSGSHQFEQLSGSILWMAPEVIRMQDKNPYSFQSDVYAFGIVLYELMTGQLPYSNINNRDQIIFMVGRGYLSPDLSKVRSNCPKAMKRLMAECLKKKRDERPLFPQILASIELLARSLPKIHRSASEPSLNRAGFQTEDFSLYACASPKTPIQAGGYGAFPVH

Key:
Settings in all cases: K562; 2-18 h
STK38 = STK38 (UniProt Q15208); assay: kinase-Nluc reporter destabilization hit call (1 = scored as downregulated) (binary); higher = compound decreases kinase abundance
SYK = SYK (UniProt P43405); assay: as above
TEC = TEC (UniProt P42680); assay: as above
TYK2 = TYK2 (UniProt P29597); assay: as above
ULK3 = ULK3 (UniProt Q6PHR2); assay: as above
YES1 = YES1 (UniProt P07947); assay: as above
ZAK = ZAK (UniProt Q9NYL2); assay: as above
ZAP70 = ZAP70 (UniProt P43403); assay: as above
ABL1 = ABL1 (UniProt P00519); assay: number of time points (of 5) at which kinase-Nluc abundance scored as decreased, DMSO-normalised (count); higher = more persistent destabilization
AKT1 = AKT1 (UniProt P31749); assay: as above
ALK = ALK (UniProt Q9UM73); assay: as above
ARAF = ARAF (UniProt P10398); assay: as above
AURKA = AURKA (UniProt O14965); assay: as above
AURKB = AURKB (UniProt Q96GD4); assay: as above
AURKC = AURKC (UniProt Q9UQB9); assay: as above
BLK = BLK (UniProt P51451); assay: as above
BMX = BMX (UniProt P51813); assay: as above
BRAF = BRAF (UniProt P15056); assay: as above
BRAF_V600E = assay: as above
BTK = BTK (UniProt Q06187); assay: as above

Compound | kinase-Nluc reporter destabilization hit call (STK38) | kinase-Nluc reporter destabilization hit call (SYK) | kinase-Nluc reporter destabilization hit call (TEC) | kinase-Nluc reporter destabilization hit call (TYK2) | kinase-Nluc reporter destabilization hit call (ULK3) | kinase-Nluc reporter destabilization hit call (YES1) | kinase-Nluc reporter destabilization hit call (ZAK) | kinase-Nluc reporter destabilization hit call (ZAP70) | number of time points (ABL1) | number of time points (AKT1) | number of time points (ALK) | number of time points (ARAF) | number of time points (AURKA) | number of time points (AURKB) | number of time points (AURKC) | number of time points (BLK) | number of time points (BMX) | number of time points (BRAF) | number of time points (BRAF_V600E) | number of time points (BTK)
Cc1c(NC(=O)OC[C@@H]2COCCN2)cn2ncnc(Nc3ccc4c(cnn4Cc4cccc(F)c4)c3)c12 (10 µM) | inactive: 0 | inactive: 0 | inactive: 0 | inactive: 0 | inactive: 0 | inactive: 0 | inactive: 0 | inactive: 0 | 0 | 0 | 0 | 0 | 0 | 0 | 0 | 0 | 0 | 0 | 0 | 0
O=c1cc(O)cc(/C=C/c2ccc(O)c(O)c2)o1 [Hispidin] (10 µM) | inactive: 0 | inactive: 0 | inactive: 0 | inactive: 0 | inactive: 0 | inactive: 0 | inactive: 0 | inactive: 0 | 0 | 0 | 0 | 0 | 0 | 0 | 0 | 0 | 0 | 0 | 0 | 0
COc1cc(S(C)(=O)=O)ccc1Nc1nc2ccc(-c3ccc(NC(=O)[C@H](C)c4ccc(F)cc4)cc3)cn2n1 [Empesertib] (10 µM) | inactive: 0 | inactive: 0 | inactive: 0 | inactive: 0 | inactive: 0 | inactive: 0 | inactive: 0 | inactive: 0 | 0 | 0 | 0 | 0 | 0 | 0 | 0 | 0 | 0 | 0 | 0 | 0
COc1cc(C(N)=O)nc(-c2cccc(C#C[C@]3(O)CCN(C)C3=O)c2)c1 (10 µM) | inactive: 0 | inactive: 0 | inactive: 0 | inactive: 0 | inactive: 0 | inactive: 0 | inactive: 0 | inactive: 0 | 0 | 0 | 0 | 0 | 0 | 0 | 0 | 0 | 0 | 0 | 0 | 0
CC1CCc2nc(N)c(C#N)c(-c3cccnc3)c2C1 (stereo not given) (10 µM) | inactive: 0 | inactive: 0 | inactive: 0 | inactive: 0 | inactive: 0 | inactive: 0 | inactive: 0 | inactive: 0 | 0 | 0 | 0 | 0 | 0 | 0 | 0 | 0 | 0 | 0 | 0 | 0
COc1ccc2c(c1O)OC(C)(C)c1c-2ccc2c1C(=O)N(c1ccc(C(=O)c3ccccc3)cc1)C2=O [Ampkinone] (10 µM) | inactive: 0 | inactive: 0 | inactive: 0 | inactive: 0 | inactive: 0 | inactive: 0 | inactive: 0 | inactive: 0 | 0 | 0 | 0 | 0 | 0 | 0 | 0 | 3 | 0 | 0 | 0 | 0
COc1ncc(-c2nc(N3CCOCC3)nc3c(CN4CCC(C(C)(C)O)CC4)cc(F)cc23)cc1NS(C)(=O)=O [Linperlisib] (10 µM) | inactive: 0 | inactive: 0 | inactive: 0 | inactive: 0 | inactive: 0 | inactive: 0 | inactive: 0 | inactive: 0 | 0 | 0 | 0 | 0 | 0 | 0 | 0 | 0 | 0 | 0 | 0 | 0
COc1ccc(-c2ccc3c(N4CCOC[C@@H]4C)nc(N4CCOC[C@@H]4C)nc3n2)cc1CO (2.5 µM) | inactive: 0 | inactive: 0 | inactive: 0 | inactive: 0 | inactive: 0 | inactive: 0 | inactive: 0 | inactive: 0 | 5 | 0 | 3 | 0 | 4 | 4 | 0 | 3 | 3 | 1 | 4 | 0
Cc1cc([C@H](C)Nc2ccccc2)c2oc(N3CCOCC3)cc(=O)c2c1 (10 µM) | inactive: 0 | inactive: 0 | inactive: 0 | inactive: 0 | inactive: 0 | inactive: 0 | inactive: 0 | inactive: 0 | 0 | 0 | 0 | 0 | 0 | 0 | 0 | 0 | 0 | 0 | 0 | 0
CCN(CC)S(=O)(=O)c1ccc(OC)c(N2CCN(C(=O)c3ccc(F)cc3C(F)(F)F)CC2)c1 (10 µM) | inactive: 0 | inactive: 0 | inactive: 0 | inactive: 0 | inactive: 0 | inactive: 0 | inactive: 0 | inactive: 0 | 0 | 0 | 0 | 0 | 0 | 0 | 0 | 0 | 0 | 0 | 0 | 0
CCN(CC)c1ccc2cc(C(=O)N3CCN(C(=O)C4=Cc5c(Br)cccc5S4(=O)=O)CC3)c(=O)oc2c1 (2 µM) | inactive: 0 | inactive: 0 | inactive: 0 | inactive: 0 | inactive: 0 | inactive: 0 | inactive: 0 | inactive: 0 | 0 | 0 | 0 | 0 | 1 | 0 | 0 | 0 | 0 | 0 | 0 | 0
O=C1Nc2nc(-c3c(O)cccc3OCC3CC3)cc([C@@H]3CCCNC3)c2CO1 [Bay 65-1942 (hydrochloride)] (10 µM) | inactive: 0 | inactive: 0 | inactive: 0 | inactive: 0 | inactive: 0 | inactive: 0 | inactive: 0 | inactive: 0 | 4 | 0 | 0 | 0 | 4 | 0 | 0 | 0 | 0 | 0 | 4 | 0
COc1cc2ncnc(Nc3cccc(Cl)c3)c2cc1OC (10 µM) | inactive: 0 | inactive: 0 | inactive: 0 | inactive: 0 | inactive: 0 | inactive: 0 | inactive: 0 | inactive: 0 | 0 | 0 | 0 | 0 | 0 | 0 | 0 | 0 | 0 | 0 | 0 | 0
Nc1cc(Nc2ccc(S(N)(=O)=O)cc2)ncn1 (10 µM) | inactive: 0 | inactive: 0 | inactive: 0 | inactive: 0 | inactive: 0 | inactive: 0 | inactive: 0 | inactive: 0 | 0 | 0 | 0 | 0 | 0 | 0 | 0 | 0 | 0 | 0 | 2 | 0
Cc1ccc(Nc2cc(-c3cccc(N4C(=O)c5ccccc5C4=O)c3)ncn2)cc1NS(C)(=O)=O (10 µM) | inactive: 0 | inactive: 0 | inactive: 0 | inactive: 0 | inactive: 0 | inactive: 0 | inactive: 0 | inactive: 0 | 0 | 0 | 0 | 0 | 0 | 0 | 0 | 0 | 0 | 0 | 1 | 0
c1cc2c(cc1O[C@H]1OC[C@H]3[C@@H]1CO[C@@H]3c1ccc3c(c1)OCO3)OCO2 [Sesamolin] (10 µM) | inactive: 0 | inactive: 0 | inactive: 0 | inactive: 0 | inactive: 0 | inactive: 0 | inactive: 0 | inactive: 0 | 0 | 0 | 0 | 0 | 0 | 0 | 0 | 0 | 0 | 0 | 0 | 0
C[C@@H](c1ccc2nccn2c1)n1nnc2ncc(-c3cnn(C)c3)nc21 [Savolitinib] (10 µM) | inactive: 0 | inactive: 0 | inactive: 0 | inactive: 0 | inactive: 0 | inactive: 0 | inactive: 0 | inactive: 0 | 0 | 0 | 0 | 0 | 0 | 0 | 0 | 0 | 0 | 0 | 0 | 0
O=C(Nc1nc2ccccc2[nH]1)c1cccc(-n2cccc2)c1 (10 µM) | inactive: 0 | inactive: 0 | inactive: 0 | inactive: 0 | inactive: 0 | inactive: 0 | inactive: 0 | inactive: 0 | 0 | 0 | 0 | 0 | 0 | 0 | 0 | 0 | 0 | 0 | 0 | 0
CC(C)(C)c1ccc(S(=O)(=O)Nc2ccc(-n3ccnc3)cc2)cc1 (10 µM) | inactive: 0 | inactive: 0 | inactive: 0 | inactive: 0 | inactive: 0 | inactive: 0 | inactive: 0 | inactive: 0 | 0 | 0 | 0 | 0 | 0 | 0 | 0 | 0 | 0 | 0 | 0 | 0
C=CC(=O)Nc1ccc(CN(C(=O)Nc2c(Cl)c(OC)cc(OC)c2Cl)c2cc(Nc3ccc(N4CCN(C)CC4)cc3)ncn2)cc1 (10 µM) | inactive: 0 | inactive: 0 | inactive: 0 | inactive: 0 | inactive: 0 | inactive: 0 | inactive: 0 | inactive: 0 | 0 | 0 | 0 | 0 | 0 | 0 | 0 | 1 | 0 | 0 | 0 | 0
CCc1cc(O)c(F)cc1-c1ccc2c(-c3nc4c([nH]3)CN(C3CCN(C)CC3)CC4)n[nH]c2c1 [JAK-IN-5 (hydrochloride)] (2 µM) | inactive: 0 | inactive: 0 | inactive: 0 | inactive: 0 | inactive: 0 | inactive: 0 | inactive: 0 | inactive: 0 | 4 | 0 | 0 | 0 | 3 | 0 | 0 | 0 | 1 | 1 | 0 | 0

Some of these compounds in order of SMILES length, rising.
Compound | kinase-Nluc reporter destabilization hit call (STK38) | kinase-Nluc reporter destabilization hit call (SYK) | kinase-Nluc reporter destabilization hit call (TEC) | kinase-Nluc reporter destabilization hit call (TYK2) | kinase-Nluc reporter destabilization hit call (ULK3) | kinase-Nluc reporter destabilization hit call (YES1) | kinase-Nluc reporter destabilization hit call (ZAK) | kinase-Nluc reporter destabilization hit call (ZAP70) | number of time points (ABL1) | number of time points (AKT1) | number of time points (ALK) | number of time points (ARAF) | number of time points (AURKA) | number of time points (AURKB) | number of time points (AURKC) | number of time points (BLK) | number of time points (BMX) | number of time points (BRAF) | number of time points (BRAF_V600E) | number of time points (BTK)
CC1CCc2nc(N)c(C#N)c(-c3cccnc3)c2C1 (stereo not given) (10 µM) | inactive: 0 | inactive: 0 | inactive: 0 | inactive: 0 | inactive: 0 | inactive: 0 | inactive: 0 | inactive: 0 | 0 | 0 | 0 | 0 | 0 | 0 | 0 | 0 | 0 | 0 | 0 | 0
c1cc2c(cc1O[C@H]1OC[C@H]3[C@@H]1CO[C@@H]3c1ccc3c(c1)OCO3)OCO2 [Sesamolin] (10 µM) | inactive: 0 | inactive: 0 | inactive: 0 | inactive: 0 | inactive: 0 | inactive: 0 | inactive: 0 | inactive: 0 | 0 | 0 | 0 | 0 | 0 | 0 | 0 | 0 | 0 | 0 | 0 | 0
COc1ncc(-c2nc(N3CCOCC3)nc3c(CN4CCC(C(C)(C)O)CC4)cc(F)cc23)cc1NS(C)(=O)=O [Linperlisib] (10 µM) | inactive: 0 | inactive: 0 | inactive: 0 | inactive: 0 | inactive: 0 | inactive: 0 | inactive: 0 | inactive: 0 | 0 | 0 | 0 | 0 | 0 | 0 | 0 | 0 | 0 | 0 | 0 | 0
